Screen size: about 2,200 compounds; about 15 (0.7%) were called active.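 Rule for the calls: active = fitted half-maximal concentration for loss of luminescence signal no more than a set limit of log units above the top tested concentration; inconclusive = flat fit with 30 to 70% signal loss, or invalid fit; inactive = half-maximal concentration above that set limit.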 This is one part of the list. Bounds are passed on as bounds.

The text below walks through data of PubChem BioAssay AID434947 (Broad Institute, 2010).

This assay in a line: inhibitors of ADP-Glo detection reagents, dose response, artefact control for GSK3beta inhibitor project, biochemical, luminescence, cell-free, homogeneous (AID 434947).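 Note: kinase-free counter screen of ADP-Glo detection reagents for GSK3beta hits.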 To be noted: 5 uM ADP. In general terms: ADP-Glo turns the ADP formed in a reaction into a luminescent signal.
Consider `Nc1nc(N)nc(-c2cc(Cl)ccc2Cl)n1`, for which the EC50 was inactive: > 30 µM.
The result for `COc1ccc2oc(C)c(C(=O)c3ccc(C)cc3)c2c1` reads inactive: > 30 µM; that for `O=C(O)c1ccccc1Nc1ccc([N+](=O)[O-])cc1`, inactive: > 30 µM.
To `CC(C)=CCc1c(O)c(CC=C(C)C)c2c(c1O)C(=O)CC(c1ccc(O)cc1)O2` (stereo not given) belongs inactive: > 30 µM; to `CC(C)c1ccc(NC2=CC(=O)CC(C)(C)C2)cc1`, inactive: > 30 µM; to `NC(=O)c1ccc(N2CCCCCC2)c([N+](=O)[O-])c1`, inactive: > 30 µM.
To `COc1ccc(Nc2nc(NCCN3CCOCC3)nc(Nc3ccc(OC)cc3)n2)cc1` belongs inactive: > 30 µM; to `Cn1cc(S(=O)(=O)NCc2ccc(F)cc2)c(=O)n(C)c1=O`, inactive: > 30 µM.
With `CSc1nc(-c2cccs2)c(C#N)c(=O)[nH]1`, the EC50 is inactive: > 30 µM.
To `COCCn1c(SCC(=O)Nc2nc(C)c(Cl)cc2Cl)nc2ccccc21` belongs inactive: > 30 µM.
To `Cc1ccc(C(=O)c2coc3ccc(O)c(Cl)c23)cc1` belongs inactive: > 30 µM; to `CCCc1cc(=O)oc2cc(C)c3c(C)coc3c12`, inactive: > 30 µM; to `Cc1nnc(SCC(=O)N2CCC(C(=O)Nc3nccs3)CC2)n1Cc1ccccc1`, inactive: > 30 µM.
To `CN(C)C=NC(=O)/C(C#N)=C1\CCc2ccccc2N1` belongs inactive: > 30 µM; to `COc1ccc(NC(=O)c2sc(=S)[nH]c2N)cc1`, inactive: > 30 µM; to `Clc1ccccc1Nc1nc(-c2ccncc2)nc2ccccc12`, inactive: > 30 µM.
`COCCCn1c(-c2ccc(OC)cc2)nc2nc3ccccc3nc21`: the EC50 was inactive: > 30 µM.
To `Cc1ccccc1-c1nc(CN2CCC(C(=O)N3CCN(c4ccccn4)CC3)CC2)c(C)o1` belongs inactive: > 30 µM; to `CCCN(CCC)Cc1c(C(=O)N/N=C/c2ccsc2)nnn1-c1nonc1N`, inactive: > 30 µM; to `Cc1ccc(C(=O)Nc2ccccc2C(=O)NCc2ccco2)cc1S(=O)(=O)N1CCCCC1`, inactive: > 30 µM.
To `O=C(Nc1ccccn1)c1ccc(C(=O)Nc2ccccn2)cc1` belongs inactive: > 30 µM; to `CC(C(=O)NCc1ccccc1)n1cc([N+](=O)[O-])cn1` (stereo not given), inactive: > 30 µM; to `O=C(O/N=C\c1ccc(N2CCCCC2)c([N+](=O)[O-])c1)c1ccc(Cl)cc1Cl`, inactive: > 30 µM.
To `Cn1c(=O)c2[nH]c(CN(Cc3ccccc3)Cc3ccccc3)nc2n(C)c1=O` belongs inactive: > 30 µM; to `Oc1ccc(CNCC2COc3ccccc3O2)cc1` (stereo not given), inactive: > 30 µM.
For `Cc1ccc(OCCn2c(=S)[nH]c3c(N)ncnc32)cc1`, the EC50 was inactive: > 30 µM.
For `Nc1ccccc1Nc1cc(-c2ccccc2)[nH]n1`, the EC50 was inactive: > 30 µM.
As to `Cc1cnc(C(=O)OCC(=O)N2c3ccccc3CC2C)cn1` (stereo not given), the EC50 is inactive: > 30 µM.
To `COc1ccc(/C=N/Nc2ccc([N+](=O)[O-])cc2)cc1O` belongs inactive: > 30 µM; to `COc1ccccc1Nc1nc(N(C)c2ccccc2)nc(N)c1[N+](=O)[O-]`, inactive: > 30 µM; to `NNc1ncnc2c1cnn2-c1ccccc1`, inactive: > 30 µM.
To `Cc1ccc(C)c(N2CCN(C(=O)Cn3ncc4c([nH]c5ccc(C)cc54)c3=O)CC2)c1` belongs inactive: > 30 µM.
The result for `Cc1cc(OCCCn2ccnc2)ccc1[N+](=O)[O-]` reads inactive: > 30 µM; that for `CNc1nc(N)c([N+](=O)[O-])c(Nc2ccccc2OC)n1`, inactive: > 30 µM.
In the case of `O=c1[nH]c(N/N=C/c2ccccc2)nc2ccccc12`, the EC50 is inactive: > 30 µM.
To `CC1=C(C(=O)OCc2ccccc2)C(c2ccccc2OC(F)F)NC(=O)N1` (stereo not given) belongs inactive: > 30 µM.
`COC(=O)c1ccc(N2C(=O)CC(N3CCN(C(=O)c4ccco4)CC3)C2=O)cc1` (stereo not given): the EC50 was inactive: > 30 µM.
The result for `COc1cccc2c1cc1c(=O)n(CC(=O)NCc3ccccn3)nc(C)n12` reads inactive: > 30 µM; that for `CCn1c(-c2nn(C)cc2Cl)n[nH]c1=S`, inactive: > 30 µM.
As to `CCN(CC)Cc1c(O)ccc2occ(C(=O)c3ccc(OC)cc3)c12`, the EC50 is inactive: > 30 µM.
Consider `CC(=O)Nc1c(N)c2ccccc2oc1=O`, for which the EC50 is inactive: > 30 µM.
To `CCOC(=O)c1cnc2ccc(C(=O)OC)cc2c1Nc1ccc(C(=O)O)cc1` belongs inactive: > 30 µM; to `Cc1ccc2c(c1)NC(c1cccs1)C1=C(CC(C)(C)CC1=O)N2` (stereo not given), inactive: > 30 µM.
To `CC(=O)c1ccc(NC(=O)NNS(=O)(=O)c2ccc([N+](=O)[O-])cc2)cc1` belongs inactive: > 30 µM.
To `Nc1nc(NCCO)nc(NCc2ccccc2)c1[N+](=O)[O-]` belongs inactive: > 30 µM.
`COc1ccccc1Nc1nc(NCc2ccco2)nc(N)c1[N+](=O)[O-]`: the EC50 is inactive: > 30 µM.
For `CCc1ccc(C(=O)c2cnc3ccc(OC)cc3c2N2CCN(CC)CC2)cc1`, the EC50 was inactive: > 30 µM.
The result for `Cc1cc2c(N3CCCCC3C)ncnc2s1` (stereo not given) reads inactive: > 30 µM.
The result for `CCC(C)Nc1nc(N)c([N+](=O)[O-])c(NC2CCCCC2)n1` (stereo not given) reads inactive: > 30 µM; that for `COc1cc(/C=N/NC(=O)COc2ccccc2[N+](=O)[O-])ccc1OC(=O)c1ccco1`, inactive: > 30 µM.
To `O=[N+]([O-])c1ccc2[nH]c(O)c(N=NC3CS(=O)(=O)CC3O)c2c1` (stereo not given) belongs inactive: > 30 µM; to `COc1ccc(Nc2nc3ccccc3s2)cc1`, inactive: > 30 µM; to `COc1ccc(-c2nn(CCC(=O)O)cc2/C=C/C(=O)O)cc1[N+](=O)[O-]`, inactive: > 30 µM.
Turning to `COc1cc(/C=N/Nc2ccc(C(F)(F)F)cn2)ccc1O`, the EC50 was inactive: > 30 µM.
To `CC1CCCCN1c1nnc(N)s1` (stereo not given) belongs inactive: > 30 µM; to `CCOC(=O)c1cnc2ccc(OCC)cc2c1N1CCN(C)CC1`, inactive: > 30 µM.
To `CCn1nc(NC(=O)C2CCCO2)c2cc3cccc(C)c3nc21` (stereo not given) belongs inactive: > 30 µM; to `Cc1cc(=O)[nH]c(N/N=C/c2ccc(-c3ccc([N+](=O)[O-])cc3)o2)n1`, inactive: > 30 µM; to `CSc1nc2c(c(=O)[nH]1)C(c1cccs1)C1=C(CCCC1=O)N2` (stereo not given), inactive: > 30 µM.
To `Cc1[nH][nH]c(=O)c1N=Nc1ccc(S(N)(=O)=O)cc1` belongs inactive: > 30 µM.

What is called EC50 is the concentration giving half of the maximal effect.
